# Assay results reported in patent US20150093821A1, “BIODEGRADABLE POLYURETHANES AND USE THEREOF” (CARNEGIE MELLON UNIVERSITY, priority 2003, published 2015).
# At least one compound was matched to its structure with a doubt left.
# System: alkaline phosphatase activity of mouse bone cells (OPC)
# Experiment: Alkaline phosphatase activity of OPC with bioactive reagents or polymer foams
# Type: cell-based
# Conditions: 4 weeks, OD at 405 nm, medium with or without polymer, FIG. 5
# Procedure: Bioactive polymers containing covalently bound dexamethasone and β-glycerophosphate were also synthesized and studied for potential use as bone scaffolds. In several studies, mouse bone cells (OPC) (9.6×10^4/well) were cultured in a 6-well tissue culture plate without polymer foam (blank column) with Dulbecoo's modified Eagle's medium only (DMEM); with 5 mM β-glycerophosphate (β-GP); with 100 nM dexamethasone (Dex); 50 μM ascorbic acid (Vc); with 50 μM ascorbic acid and 5 mM β-glycerophosphate (Vc+β-GP); with 50 μM ascorbic acid and 100 nM dexamethasone (Vc+Dex); with 50 μM ascorbic acid, 100 nM dexamethasone and 5 mM β-glycerophosphate (Vc+Dex+β-GP) for 4 weeks.
# The same cells were cultured in a 6-well plate with the LDI-PEG400-glucose polymer (red column) using DMEM only. The polymer foams were synthesized with lysine ethyl ester diisocyanate (LDI), glucose and PEG only (DMEM); with LDI, glucose, PEG and β-glycerophosphate (β-GP); with LDI, glucose, PEG and dexamethasone (Dex); with LDI, glucose, PEG and ascorbic acid (Vc); with LDI, glucose, PEG, ascorbic acid and β-glycerophosphate (Vc+β-GP); with LDI, glucose, PEG, ascorbic acid and dexamethasone (Vc+Dex); and with LDI, glucose, PEG, ascorbic acid, 3-glycerophosphate and dexamethasone (Vc+Dex+β-GP). […] The alkaline phosphatase activity was determined by the OD at 405 nm in the medium with or without polymer. […]
compound,measurement,value
C[C@@H]1C[C@H]2[C@@H]3CCC4=CC(=O)C=C[C@]4(C)[C@@]3(F)[C@@H](O)C[C@]2(C)[C@@]1(O)C(=O)CO [dexamethasone],alkaline phosphatase activity of OPC,significantly increased
